Data on 2 sequences can be found in paper PMC7603314, “Broad-complex transcription factor mediates opposing hormonal regulation of two phylogenetically distant arginine kinase genes in Tribolium castaneum” (Communications Biology, 2020).

The exact form of at least one protein or probe is not confirmed.

The test system of the series is GST-TcBR-C-z2 (Tribolium castaneum). In words: EMSA. Conditions: Chemiluminescent EMSA kit (Beyotime), per manufacturer; pH and temperature not stated; unlabeled probe competition done, outcome not given; recombinant protein; protein details: N-terminal GST (pGEX4T-1); label: biotin.

Regarding “TCTCCCTTATTTATTGAAATATAAATAGAATTCTGAAATT (double strand) [TcAK2 promoter probe]”, the binding result is reported as “binds”.
As for “CCGGGAGAGGGGATTCTGCAAATAGATTTTTATCAGTTAATTCCTT (double strand) [TcAK1 promoter probe]”, the binding result is on record as “binds”.
